# No constants are given. Whether binding was seen depends on the method and setting. Some binding calls cover weakened binding; strength is not graded here. Tags and fused reporters may be left off the sequences shown.
# T1: PSGL-1 (P-selectin glycoprotein ligand-1) (human (endogenous in KG1a)) (UniProt Q14242)
# T1 sequence: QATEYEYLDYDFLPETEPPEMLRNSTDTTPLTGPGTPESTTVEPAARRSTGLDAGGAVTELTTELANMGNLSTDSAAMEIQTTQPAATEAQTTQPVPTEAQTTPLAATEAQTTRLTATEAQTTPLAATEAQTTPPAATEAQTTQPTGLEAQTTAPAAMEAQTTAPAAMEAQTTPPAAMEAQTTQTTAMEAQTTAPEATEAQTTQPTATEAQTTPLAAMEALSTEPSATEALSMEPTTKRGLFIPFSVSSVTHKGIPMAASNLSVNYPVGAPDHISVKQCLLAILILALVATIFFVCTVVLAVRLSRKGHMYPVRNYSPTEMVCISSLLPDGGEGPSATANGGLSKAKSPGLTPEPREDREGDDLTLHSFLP
# Target: T1, PSGL-1 (P-selectin glycoprotein ligand-1) (human (endogenous in KG1a))
# Assay: far-Western; PSGL-1 and CD44 immunoprecipitated from KG1a lysate, reduced SDS-PAGE, PVDF; blots stained with 1 ug/ml E-selectin protein in TBST with 2 mM CaCl2; detected by Strep-tag II mAb or, for the dimeric proteins, anti-human IgG; only the binder purified
row,Binder,binding
1,"E-selectin-IgG/Fc chimera produced from NS0 cells (R&D Systems) (Fc fusion, UniProt Q00690 22-557) WYYNASSELMTYDEASAYCQRDYTHLVAIQNKEEINYLNSNLKHSPSYYWIGIRKVNNVWIWVGTGKPLTEEAQNWAPGEPNNKQRNEDCVEIYIQRTKDSGMWNDERCNKKKLALCYTASCTNASCSGHGECIETINSYTCKCHPGFLGPNCEQAVTCKPQEHPDYGSLNCSHPFGPFSYNSSCSFGCKRGYLPSSMETTVRCTSSGEWSAPAPACHVVECEALTHPAHGIRKCSSNPGSYPWNTTCTFDCVEGYRRVGAQNLQCTSSGIWDNETPSCKAVTCDAIPQPQNGFVSCSHSTAGELAFKSSCNFTCEQSFTLQGPAQVECSAQGQWTPQIPVCKAVQCEALSAPQQGNMKCLPSASGPFQNGSSCEFSCEEGFELKGSRRLQCGPRGEWDSKKPTCSAVKCDDVPRPQNGVMECAHATTGEFTYKSSCAFQCNEGFSLHGSAQLECTSQGKWTQEVPSCQVVQCPSLDVPGKMNMSCSGTAVFGTVCEFTCPDDWTLNGSAVLTCGATGRWSGMPPTCEAPVSPTRP",binds
2,"E-S6 (monomeric full-length extracellular mouse E-selectin) (domain or fragment, UniProt Q00690 22-557) WYYNASSELMTYDEASAYCQRDYTHLVAIQNKEEINYLNSNLKHSPSYYWIGIRKVNNVWIWVGTGKPLTEEAQNWAPGEPNNKQRNEDCVEIYIQRTKDSGMWNDERCNKKKLALCYTASCTNASCSGHGECIETINSYTCKCHPGFLGPNCEQAVTCKPQEHPDYGSLNCSHPFGPFSYNSSCSFGCKRGYLPSSMETTVRCTSSGEWSAPAPACHVVECEALTHPAHGIRKCSSNPGSYPWNTTCTFDCVEGYRRVGAQNLQCTSSGIWDNETPSCKAVTCDAIPQPQNGFVSCSHSTAGELAFKSSCNFTCEQSFTLQGPAQVECSAQGQWTPQIPVCKAVQCEALSAPQQGNMKCLPSASGPFQNGSSCEFSCEEGFELKGSRRLQCGPRGEWDSKKPTCSAVKCDDVPRPQNGVMECAHATTGEFTYKSSCAFQCNEGFSLHGSAQLECTSQGKWTQEVPSCQVVQCPSLDVPGKMNMSCSGTAVFGTVCEFTCPDDWTLNGSAVLTCGATGRWSGMPPTCEAPVSPTRP",binds

# From paper PMC7076219
